No constants are given. Whether binding was seen depends on the method and setting. Some binding calls cover weakened binding; strength is not graded here.
Target: human CLEC-2 (C-type lectin-like receptor 2) (human) (UniProt Q9P126)
Assay: column 'CLEC-2 binding' of the summary Table 10

Chains of the proteins cited; added tags and fusions are not shown. Lines headed by an entry give the natural chain unless they say otherwise; changes in a name come on top.
UniProt Q9P126: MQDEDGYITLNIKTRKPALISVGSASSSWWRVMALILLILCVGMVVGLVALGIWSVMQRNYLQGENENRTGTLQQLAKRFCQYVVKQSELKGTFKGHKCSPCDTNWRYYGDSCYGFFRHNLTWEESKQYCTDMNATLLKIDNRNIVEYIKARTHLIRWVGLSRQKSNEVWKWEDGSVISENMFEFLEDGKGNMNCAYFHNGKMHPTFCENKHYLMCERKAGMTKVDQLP
UniProt Q9I841: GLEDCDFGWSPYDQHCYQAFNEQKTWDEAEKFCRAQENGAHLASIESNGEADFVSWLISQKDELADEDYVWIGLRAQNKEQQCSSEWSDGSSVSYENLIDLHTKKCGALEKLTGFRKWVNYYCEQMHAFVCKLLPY

wild-type rhodocytin derived from recombinant cell No. 1 ([βS]-[α subunit]/pCMV and [βS]-[β subunit]/pCMV in CHO cells) (from UniProt Q9I841 1-136; Q9I840 24-146) (ligand)
binding: binds
